Laboratory results taken from PubChem BioAssay AID1794845 (National Center for Advancing Translational Sciences (NCATS), 2023).
Among all 6,900 compounds or so, fewer than 10 were called active. The call rests on the fitted dose curve; in most records, active means well fitted curve in the direction sought with a large enough effect; inconclusive means small, poorly fitted or top-dose-only effect, or another doubt; inactive means no such curve, though single readings can be large or run the other way. Some of the results follow.

Amino acid sequences for entries named in this document (tags omitted). A change or cut given only in a name is not applied to a line headed by its entry.
UniProt C7C422: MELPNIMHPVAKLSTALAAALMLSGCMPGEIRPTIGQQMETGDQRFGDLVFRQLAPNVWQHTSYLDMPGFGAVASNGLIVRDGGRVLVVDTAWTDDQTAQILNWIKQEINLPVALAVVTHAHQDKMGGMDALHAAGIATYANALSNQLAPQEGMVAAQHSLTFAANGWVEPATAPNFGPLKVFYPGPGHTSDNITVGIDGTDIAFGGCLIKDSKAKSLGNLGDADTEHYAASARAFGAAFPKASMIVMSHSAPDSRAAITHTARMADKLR

These compounds were tested against Metallo-beta-lactamase type 2 (Klebsiella pneumoniae) (UniProt C7C422) (assay: qHTS to identify inhibitors of the New Delhi Metallo-beta-lactamase (NDM): primary screen against the NCATS Gemini Collection). Conditions: NDM-1 enzyme, meropenem hydrolysis, absorbance 300 nm; at 38.4 µM (top of the series) unless noted.
In short: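 Meropenem hydrolysis (50 uM final) by 2 nM NDM-1 read as 300 nm absorbance after 30 min, following >30 min compound–enzyme preincubation in HEPES pH 7.0 with 1 uM ZnSO4 and 0.01% Tween20.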
Further: % of control where 0% means no effect.

Activity % (negative = inhibition), inactive:
CN(C)[C@@H]1CO[C@H](CNC(=O)CC(C)(C)C)[C@H]1O 0.831% [at 77.1 µM]
CCn1ncc(CN2C[C@@H](COC)[C@H](c3ccncc3)C2)c1C -9.05%
NCCC(=O)N1CCCC(N2CCN(c3ccccc3F)CC2)C1 (stereo not given) 13.7%
Cc1ccsc1CN1CCCC(O)(CN(C)C)C1 (stereo not given) 0.158%
O=C(c1n[nH]c2c1CCCCCC2)N1CCc2c(nc3cc(-c4ccccc4)[nH]n3c2=O)C1 7.89%
CC1=NS(=O)(=O)N(C)C=C1C(=O)OCc1noc(-c2ccco2)n1 16.9%
CC1CCN(CCCNC(=O)C2CCc3sc(C(=O)N4CCCC4)cc3C2)CC1 (stereo not given) 4.94%
O=C(C1CCCN([S+](=O)([O-])c2cccc(C(F)(F)F)c2)C1)N1CCC(c2nc3ncccc3[nH]2)C1 (stereo not given) 3.41%
COc1ccc2c(c1)CCN=C2C[C@H]1CN(C(=O)c2ccc(F)cc2)CC[C@H]1CC(=O)O 13.3% [at 57.5 µM]
C[C@H]1[C@@H]2[C@@H](O)C([C@H](C)C(=O)NCc3cccs3)CC[C@@]2(C)CC[C@@H]1NC(=O)COc1ccccc1 (stereo not given in full) 2.8%
O=C(NCc1ccc2c(c1)CCCO2)c1ccc(C2CCNC2)cc1 (stereo not given) -3.31%
O=C(NCC1(Cn2cccn2)CC1)c1ccc(C2CCNC2)cc1 (stereo not given) -2.79%
Cc1ccccc1S(=O)(=O)N1CCCC2(C1)Nc1cccnc1NC2=NC1CCCC1 (stereo not given) 0.953%
C[C@@H]1CN(c2ccc(C(=O)N3CCC(N4CCOCC4)CC3)cn2)C[C@H](C)O1 8.83%
CC(NC(=O)CN1C(=O)NC2(CCS(=O)(=O)CC2)C1=O)c1ccccc1 (stereo not given) -16.8%
O=[S+]([O-])(c1ccccc1)N1CC(Oc2ccc(F)c(F)c2)C1 0.56%
Cn1ccc(C(=O)NCc2nnc3n2C(C(=O)NCCc2ccc(Cl)cc2)CC3)n1 (stereo not given) 9.1%
COc1c[nH]c(CN2CCN(C)C3(CCC(=O)N(C)CC3)C2)cc1=O (stereo not given) 7.56%
COCCc1ccc(OCc2ccccc2-c2ccc(=O)n(C)n2)cc1 46%
Cc1ccc(C(=O)N2CCCCCNC(=O)CC2c2ccccc2)s1 (stereo not given) 20.6%
O=C(Nc1ccccc1)O[C@@H]1CO[C@H]2[C@@H]1OC[C@@H]2NC(=S)Nc1ccc(F)cc1 -2.71% [at 57.5 µM]
FC(F)(F)CN1C2CCC1CN(c1cncc(Cl)n1)C2 -5.85%
CN1CC2(CCN(C(=O)c3cccn3C)CC2)CC(c2ccccc2)C1=O (stereo not given) 0.386%
CN(Cc1cccc(OC(F)(F)F)c1)C(=O)C1(c2ccc(Cl)cc2)CCOCC1 4.31%
O=C(c1n[nH]c2ccccc12)N1CCC(Cc2nc(-c3ccncc3)n[nH]2)CC1 -2.41%
O=C(NC1CCCC1)c1cc2cn(C3CC3)cc2s1 39.2%
Cc1ccc(NC(=O)[C@@H]2CNC[C@H](C(=O)NCc3ccccn3)C2)cn1 37.1%
CC(C)c1nc2c(c(-c3ccc(O)cc3)n1)CN(Cc1cccn1C)CC2 11.2%
Cn1nc(C2CCN(C(=O)c3ccccn3)CC2)c2c1CCOC2 -1.39%
COc1cccc(CN2Cc3cc(NC(=O)Cc4ccccc4)ccc3OCC2=O)c1 -0.433%
CN(C)S(=O)(=O)N1CC(CNC(=O)C2CC2)C2(CCCCC2)C1 (stereo not given) -1.41%
CC(C)C(=O)N1CCC2(CCC(=O)N(CC3CC3)CC2)CC1 -1.47%
Cc1[nH]cnc1CN1CCc2nc(C(=O)NCCOc3ccccc3)oc2CC1 4.31% [at 57.5 µM]
O=C(NC1CCc2nnc(C3CC3)n2CC1)c1cnco1 (stereo not given) -13%
CNc1cc(C2CC(NS(=O)(=O)c3ccc(Cl)s3)C2)nc(N)n1 (stereo not given) -3.64%
CCc1ccc(C(=O)N2CC(c3nnc(C(C)C)o3)C3(CCOCC3)C2)cc1 (stereo not given) -2.65%
O=C1COc2ccc(N3CCCC3)nc2CN1Cc1ccc(C(F)(F)F)cc1 -2.19% [at 57.5 µM]
CCCNC(=O)N1CCC(n2c(C)cnc2C2CCOCC2)CC1 -0.78%
COc1ccc(CC(=O)N2C[C@@H](CO)[C@H](c3ccccn3)C2)cc1 -0.0381%
O=C(Cc1cccs1)N1CCCn2cc(-c3ccccc3F)nc21 17%
COc1ccc(CN2CCCC(COc3ccccc3C(=O)NC3CC3)C2)c(OC)c1 (stereo not given) 2.86%
Cc1noc(C2CC3(CCN(C(=O)CCc4c[nH]c5ccccc45)CC3)CN2C)n1 (stereo not given) 1.1%
O=C(c1cc(-c2ccc(Cl)cc2Cl)c2cccn2n1)N1CCCC1 16.7%
O=c1c2c(CO)c(-c3ccccc3)nn2ccn1Cc1ccccc1 -1.76%
O=C(Nc1ccc2c(c1)OCCO2)N1CCC(Cc2nc(-c3ccncc3)n[nH]2)C1 (stereo not given) 2.28%
CCCS(=O)(=O)N1CCCC(Cc2noc(-c3cnccn3)n2)C1 (stereo not given) 11.3%
O=C(c1ccc(Cl)cc1)N1CC2(CCCN2C2COC2)Cc2ccccc21 (stereo not given) 3.87%
Cc1cccnc1NCCNC(=O)c1ccc(S(N)(=O)=O)cc1 13%
CC(C)C1CN(c2ccc(C#N)cn2)CCC(=O)N1Cc1ccc(F)cc1 (stereo not given) 4.9%
COc1nccnc1NC1CCN(C(=O)c2cccc(C)c2)CC1 -11.5%
C1CCC(c2noc(COCC3CC3)n2)NC1 (stereo not given) -1.02%
c1ccc(CN2CCc3[nH]cnc3C2c2ccc(-c3ccccn3)cc2)nc1 (stereo not given) 62%
Cc1ccccc1CN1CC2(COCC1=O)CN(c1ccc(C(F)(F)F)cn1)C2 2.42% [at 57.5 µM]
Cc1nc(C)c(C(=O)N2CCCC2c2nc(CCOCC3CCCC3)no2)s1 (stereo not given) -0.495%
CC1CCN([C@@H]2[C@H](O)[C@H](CO)O[C@@H]2CNC(=O)c2ccc(F)c(Cl)c2)CC1 -3.84%

3 entries drawn at random from the list so far:
Activity % (negative = inhibition), inactive:
O=C(c1cc(-c2ccc(Cl)cc2Cl)c2cccn2n1)N1CCCC1 16.7%
CC(C)c1nc2c(c(-c3ccc(O)cc3)n1)CN(Cc1cccn1C)CC2 11.2%
CCc1ccc(C(=O)N2CC(c3nnc(C(C)C)o3)C3(CCOCC3)C2)cc1 (stereo not given) -2.65%
